Measurements as given in article PMC6894571.
These are yes or no findings as the source states them, for the method shown. Binding seen in cells or lysates may run through a third protein. Tags and fused reporters may be left off the sequences shown.

Target: T1, atOma1::FLAG (Arabidopsis thaliana) (UniProt Q9FLI5)
T1 sequence: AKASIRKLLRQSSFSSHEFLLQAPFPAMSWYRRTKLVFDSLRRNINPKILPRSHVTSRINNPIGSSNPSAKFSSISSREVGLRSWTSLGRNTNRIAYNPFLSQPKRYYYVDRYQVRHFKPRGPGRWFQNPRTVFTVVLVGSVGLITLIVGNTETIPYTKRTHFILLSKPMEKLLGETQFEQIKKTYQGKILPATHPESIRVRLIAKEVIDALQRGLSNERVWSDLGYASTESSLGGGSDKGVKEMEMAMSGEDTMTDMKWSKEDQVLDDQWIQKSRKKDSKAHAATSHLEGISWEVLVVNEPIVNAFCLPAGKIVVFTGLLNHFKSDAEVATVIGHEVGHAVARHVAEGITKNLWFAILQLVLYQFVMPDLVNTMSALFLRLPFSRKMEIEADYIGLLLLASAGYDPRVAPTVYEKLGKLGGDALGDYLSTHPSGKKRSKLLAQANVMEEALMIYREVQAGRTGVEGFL
Test: co-IP; anti-DDDDK (FLAG) magnetic beads; digitonin-solubilised crude mitochondria of transgenic CMS sugar beet suspension cells; 1x PBS, 0.1% digitonin, overnight at 4°C; precipitates blotted with anti-FLAG and anti-preSATP6

binding: no binding
Substance: preSATP6 protein
